In all, about 330,000 compounds went through this assay and about 7,700 (2.3%) were called active. The inconclusive results got no clear call from the source; some entries with a clear call stand among them for comparison. Calls follow the shape of the dose curve; as a rule, active = well fitted inhibition curve with a large enough effect; inconclusive = small, poorly fitted or top-dose-only effect, or effect the other way; inactive = flat fitted curve, though single readings scatter. A potency beside an inconclusive call is a rough fit, not a confirmed value.
Test: qHTS screen for small molecules that inhibit ELG1-dependent DNA repair in human embryonic kidney (HEK293T) cells expressing luciferase-tagged ELG1; also: nearly all actives have a fitted effect of over 55% in size
Conditions: HEK293T ELG1-luciferase reporter, luminescence, 16 h, DNA damage induced by 5-fluorouridine; series mostly up to 46.1 µM
Summary of the method: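 Overnight (16 hr) co-exposure of 2,000 cells/well to 5-fluorouridine and compound at 37 °C preceded detection. Luciferase was quantified via ONE-Glo luminescence; loss of signal denotes inhibition.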
In the case of N#CCSc1ncccc1-c1nc2ccccc2[nH]1, the Potency is reported as inconclusive: 16.4 µM [activator, partial curve].
For O=Cc1ccc(OCc2ccc3ccccc3c2)cc1, the Potency was inconclusive: 11.2 µM [activator, partial curve, poor fit].
For CC1(C)Cc2cccc(OCC(=O)N3CCN(c4ccccc4Cl)CC3)c2O1, the Potency was inconclusive: 11.6 µM [inhibitor, partial curve, poor fit].
With CN(C)CCCNC(=O)C(=O)NCC1OCCN1S(=O)(=O)c1cccs1 (centres undefined) the Potency was “inactive”.
For c1csc(-c2nc3ccccn3c2NC2CCCCC2)c1, the Potency was “inactive”.
For Cc1cc(NS(=O)(=O)c2ccc(NS(=O)(=O)c3cc(C)c(Cl)cc3Cl)cc2)no1, the Potency was inconclusive: 10.3 µM [activator, partial curve, poor fit].
In the case of COc1ccc(-c2cc3ccc(OCC(C)=O)cc3oc2=O)cc1OC, the Potency is reported as inconclusive: 18.3 µM [activator, partial curve].
In the case of CCCCCCCC/C=C\CCCCCCCC(=O)NCCO, the Potency is reported as “inactive”.
For CC(=O)NC(Cc1cccc(F)c1)C(=O)NC1CCN(C(=O)Nc2ccccc2)CC1 (centres undefined), the Potency was “inactive”.
In the case of Cc1csc(SCC(=O)NC23CC4CC(CC(C4)C2)C3)n1, the Potency is reported as “inactive”.
For Cc1ccc(F)cc1NC(=O)CN1CCN(Cc2ccccc2)CC1, the Potency was “inactive”.
In the case of Cc1ccnc(NC(=O)c2ccc3c(c2)S(=O)(=O)c2ccccc2C3=O)c1, the Potency is reported as inconclusive: 11.6 µM [activator, partial curve].
In the case of O=c1c2ccccc2ncn1-c1ccc([N+](=O)[O-])cc1[N+](=O)[O-], the Potency is reported as active: 14.6 µM.
For CCC(CC)NC(=O)c1ccc(NS(=O)(=O)c2ccc3[nH]c(=O)[nH]c3c2)cc1, the Potency was inconclusive: 10.3 µM [activator, partial curve, poor fit].
In the case of CC1CCCC(NC(=O)COC(=O)COc2ccc(Br)cc2)C1C (centres undefined), the Potency is reported as “inactive”.
In the case of COc1cc2c3nnc(-c4ccc(F)cc4)c-3cn(Cc3ccccc3F)c2cc1OC, the Potency is reported as inconclusive: 29.1 µM [activator, single point].
In the case of COc1cc(C(=O)Nc2ccccc2C2COC(=O)C2=N)cc(OC)c1OC (centres undefined), the Potency is reported as “inactive”.
For CC(C)(C)NC(=O)C(c1ccncc1)N(C(=O)C1CSC(=O)C1)c1ccccc1 (centres undefined), the Potency was “inactive”.
In the case of Cc1[nH]n(-c2ccccc2)c(=O)c1N=Nc1ccccc1O, the Potency is reported as inconclusive: 10.3 µM [inhibitor, partial curve].
In the case of Cc1[nH]nc(SCC(=O)N2CCCCCC2)c1[N+](=O)[O-], the Potency is reported as inconclusive: 20.6 µM [activator, single point].
In the case of C=CCN(c1ccc(C(=O)Nc2ccc3c(c2)OCO3)cc1)S(C)(=O)=O, the Potency is reported as active: 13 µM.
In the case of COc1cc(S(=O)(=O)N2CCN(c3ccccc3F)CC2)c(OC)cc1Cl, the Potency is reported as inconclusive: 20.6 µM [inhibitor, partial curve, poor fit].
For O=[N+]([O-])c1ccccc1/C=N/OCc1ccccc1, the Potency was inconclusive: 18.3 µM [activator, partial curve].
In the case of Cn1c(=O)oc2cc(S(=O)(=O)NCCC(=O)Nc3ccc4c(c3)OCCO4)ccc21, the Potency is reported as inconclusive: 20.6 µM [activator, single point].
For O=[N+]([O-])c1ccc(-c2nn(-c3ccccc3)cc2/C=N/n2c(-c3cccs3)n[nH]c2=S)cc1, the Potency was inconclusive: 5.8 µM [inhibitor, full curve].
With COC(=O)c1cc(NS(=O)(=O)c2ccc(C(C)C)cc2)ccc1N1CCOCC1 the Potency was inconclusive: 14.6 µM [inhibitor, partial curve, poor fit].
In the case of O=C(CNC(=O)Cc1ccccc1)NCC(=O)OCC(=O)c1ccccc1Cl, the Potency is reported as inconclusive: 23.1 µM [activator, partial curve, poor fit].
In the case of CNC(=O)/C(C#N)=C/c1c(N2CCN(c3ccccc3)CC2)nc2c(C)cccn2c1=O, the Potency is reported as inconclusive: 29.1 µM [inhibitor, single point].
In the case of O=C(O)c1cccn2c(=O)c3ccccc3nc12, the Potency is reported as “inactive”.
For CCN(CC)Cc1oc(-c2ccccc2)cc1C(=O)O, the Potency was inconclusive: 25.9 µM [activator, partial curve, poor fit].
With O=C(NNc1ccc(Cl)nn1)c1ccc(Cl)cc1 the Potency was “inactive”.
For Cc1ccc(S(=O)(=O)Oc2ccc(/C=N/NC(=O)c3nn(C)cc3Cl)cc2)cc1, the Potency was inconclusive: 29.1 µM [inhibitor, single point].
In the case of COc1cc(OC)c(-c2sc(Nc3ccccc3)n[n+]2-c2ccc(F)cc2)cc1OC, the Potency is reported as inconclusive: 10.3 µM [inhibitor, partial curve, poor fit].
With COc1ccc(CC(=O)N2CCN(S(=O)(=O)c3cccs3)CC2)cc1OC the Potency was inconclusive: 0.231 µM [activator, full curve, poor fit].
In the case of CC1(C)Cc2cccc(OCC(=O)NCCc3ccccc3)c2O1, the Potency is reported as inconclusive: 23.1 µM [activator, partial curve].
In the case of Cc1cc(SCC(=O)N2CCN(C(=O)c3ccco3)CC2)c(C)cc1Br, the Potency is reported as inconclusive: 22.4 µM [inhibitor, single point].
For CCSc1nnc(NC(=O)CCc2ccccc2)s1, the Potency was inconclusive: 14.6 µM [activator, partial curve].
In the case of Cc1nnc(CN(C)C(=O)c2cc(COc3ccc(F)cc3Cl)on2)o1, the Potency is reported as inconclusive: 18.3 µM [activator, partial curve].
For Cc1ccc(CNC(=O)CNC(=S)N(Cc2ccccc2)Cc2cccnc2)cc1, the Potency was inconclusive: 23.1 µM [inhibitor, partial curve, poor fit].
With NC(=O)COC(=O)c1sc2ccccc2c1Cl the Potency was inconclusive: 0.231 µM [inhibitor, single point].
With CC(C)C(=O)Nc1nc(-c2ccccc2)ns1 the Potency was inconclusive: 7.31 µM [activator, partial curve].
With COC(=O)c1c(N)sc(C(=O)NCCc2ccccc2)c1C the Potency was inconclusive: 0.259 µM [activator, partial curve].
For CCCn1c(=O)c(C(=O)Nc2ccccc2C(=O)OCC)c(O)c2ccccc21, the Potency was “inactive”.
For Nc1ccc(C(=O)OCc2nc3c(ccc4ccccc43)[nH]2)cc1, the Potency was inconclusive: 3.66 µM [activator, full curve].
Potency is read from the fitted curve at half-maximal effect.
